Assay results: article PMC5593906
Results are given in words; binding and its absence hold for the method and conditions named. Each block holds one molecule with its values, some of them ahead of it.

Chains of the proteins cited; added tags and fusions are not shown. Residues count along the entry.
UniProt Q13017, residues 590-763: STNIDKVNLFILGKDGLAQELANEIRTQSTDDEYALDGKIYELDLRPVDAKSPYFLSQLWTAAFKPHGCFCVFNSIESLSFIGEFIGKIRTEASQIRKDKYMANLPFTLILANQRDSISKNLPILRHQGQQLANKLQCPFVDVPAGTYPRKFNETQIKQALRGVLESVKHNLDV

Tests used:
[1] = target: Homo sapiens (human) p190RhoGAP-B pG1 domain (human) (UniProt Q13017); experiment: SEC; gel filtration of the purified, untagged pG1 domain; Superdex 75 prep grade, 20 mM Tris pH 7.5, 150 mM NaCl; both purified
[2] = target: Xenopus laevis (frog) p190RhoGAP-A pG1 domain (Xenopus laevis) (UniProt Q6NU25); experiment: as above

binding [1]: no binding
Molecule: Homo sapiens (human) p190RhoGAP-B pG1 domain (from UniProt Q13017 590-763) (domain or fragment)

binding [2]: no binding
B1: Xenopus laevis (frog) p190RhoGAP-A pG1 domain (domain or fragment, UniProt Q6NU25 587-762)
chain: DPNVDRINLVILGRDGLARELANEIRALCTNDDKYVIDGKMYELSLRPIEGNVRLPVNSFQTSTFQPHGCLCLYNSKESLSYVVESIEKSRESSLGRKENHLINLPLTLILVNRRGDTSSETAHSLIQHGQQVASKLQCVFLDAASTGLGYGRNINEKQISLILRGLLESKRNLNL
